Source: article PMC11844279
Results are given in words; binding and its absence hold for the method and conditions named. In cells and extracts the contact can be indirect. Some results given as binding are weak or reduced against the parent protein; the word gives no strength.

Chains of the proteins cited; added tags and fusions are not shown.
UniProt Q96DH6: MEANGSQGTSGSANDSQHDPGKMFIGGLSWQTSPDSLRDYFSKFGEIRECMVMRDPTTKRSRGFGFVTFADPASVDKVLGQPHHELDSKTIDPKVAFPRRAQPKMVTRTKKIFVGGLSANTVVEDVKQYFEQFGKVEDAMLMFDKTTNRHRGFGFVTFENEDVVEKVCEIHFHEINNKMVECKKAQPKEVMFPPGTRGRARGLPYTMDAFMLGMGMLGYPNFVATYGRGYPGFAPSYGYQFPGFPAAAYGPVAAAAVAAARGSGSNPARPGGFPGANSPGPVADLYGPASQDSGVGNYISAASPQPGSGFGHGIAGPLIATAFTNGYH
UniProt P08670: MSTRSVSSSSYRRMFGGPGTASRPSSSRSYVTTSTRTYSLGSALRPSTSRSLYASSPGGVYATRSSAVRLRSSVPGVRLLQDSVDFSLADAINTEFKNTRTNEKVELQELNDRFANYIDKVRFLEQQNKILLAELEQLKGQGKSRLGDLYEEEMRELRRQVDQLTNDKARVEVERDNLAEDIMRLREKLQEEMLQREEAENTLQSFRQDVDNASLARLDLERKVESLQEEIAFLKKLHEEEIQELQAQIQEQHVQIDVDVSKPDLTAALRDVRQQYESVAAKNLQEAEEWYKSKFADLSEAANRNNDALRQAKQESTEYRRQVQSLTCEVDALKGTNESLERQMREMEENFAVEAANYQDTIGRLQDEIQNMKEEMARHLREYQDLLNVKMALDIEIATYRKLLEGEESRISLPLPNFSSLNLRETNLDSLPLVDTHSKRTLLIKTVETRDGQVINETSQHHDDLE

Molecular target: Musashi RNA binding protein 2 (MSI2) (human (endogenous in MDA-MB-231)) (UniProt Q96DH6)
Assay: co-IP; MSI2 co-IP products (called Flag-MSI2 pulldown) from untreated MDA-MB-231 and DEHP-exposed clone #1 cells, western blotting for MSI2 and vimentin

binding: binds
Substance: vimentin (from UniProt P08670 1-466)
